# Source: PubChem BioAssay AID485298 (National Center for Advancing Translational Sciences (NCATS), 2010)
# Hit rate of the full screen: of about 320,000 compounds, about 740 (0.23%) were called active. All entries are inconclusive by the source's own rule. Clear calls are listed elsewhere. The call rests on the fitted dose curve; in most records, active means well fitted activation curve with a large enough effect; inconclusive means small, poorly fitted or top-dose-only effect; inactive means no such curve, though single readings can be large or run the other way. Some results for these compounds are left out of this collection, so the calls shown say nothing about other tests.
# Experiment: qHTS Assay for Small Molecule Inhibitors of Mitochondrial Division or Activators of Mitochondrial Fusion; further: nearly all actives have a fitted effect of over 45% in size
# Details: S. cerevisiae fusion-defective mutant growth rescue, CellTiterGlo 48 h
# Source text: NIH Chemical Genomics Center [NCGC] NIH Molecular Libraries Probe Production centers Network [MLPCN] MLPCN Grant: MH081279-01 Assay Submitter (PI): Jodi M. Nunnari NCGC Assay Overview: The budding yeast S. cerevisiae is a powerful system to study mitochondrial fusion. Unlike other organisms, yeast cells without functional mitochondrial DNA (mtDNA) can be propagated and studied as long as they maintain a mitochondrial compartment and are provided with a fermentable carbon source. When mitochondrial fusion is blocked in yeast, mitochondrial tubules rapidly fragment and division continues unopposed. Under conditions where fusion is compromised in mammalian cells, nearly identical changes in mitochondrial structure have been observed. Thus, these findings indicate that steady state mitochondrial structure in cells is a characteristic and specific indicator of fusion activity. […] We have developed and optimized a luminescence cell viability assay in 1536 well format for the identification of inhibitors in the yeast mitochondrial fusion-defective assay.
# The yeast glycerol stocks where kindly supplied by the laboratory of Dr. Jodi Nunnari, University of California, Davis. […] The CellTiterGlo luminescence reagent, containing luciferase and luciferin, were purchased from Promega, and the reagents were stored according to manufacturer's instructions. […] 7.#Read using bio-luminescence protocol on Viewlux.
# Potency means the concentration at half of the fitted maximal effect.
row,SMILES,Potency
1,CC(C)Oc1ccc(C(=O)NCC2(N(C)C)CCCCC2)cc1,inconclusive: 3.98 µM
